Article PMC4255088
Results are given in words; binding and its absence hold for the method and conditions named. In cells and extracts the contact can be indirect. Some results given as binding are weak or reduced against the parent protein; the word gives no strength.

Amino acid sequences for entries named in this document (tags omitted).
UniProt Q61616: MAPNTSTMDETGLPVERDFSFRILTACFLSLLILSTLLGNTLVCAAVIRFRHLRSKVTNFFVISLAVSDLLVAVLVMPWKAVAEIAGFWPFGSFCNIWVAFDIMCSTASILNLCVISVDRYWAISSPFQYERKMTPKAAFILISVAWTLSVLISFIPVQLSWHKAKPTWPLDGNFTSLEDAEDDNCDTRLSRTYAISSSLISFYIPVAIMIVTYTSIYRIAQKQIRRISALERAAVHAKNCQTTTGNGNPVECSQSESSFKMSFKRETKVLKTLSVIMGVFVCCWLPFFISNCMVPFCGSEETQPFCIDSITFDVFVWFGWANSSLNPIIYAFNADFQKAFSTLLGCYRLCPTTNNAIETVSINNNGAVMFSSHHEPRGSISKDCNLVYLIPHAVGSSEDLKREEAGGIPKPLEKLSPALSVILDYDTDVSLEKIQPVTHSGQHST

Target: dopamine D1 receptor (mouse (endogenous in brain slices of mice)) (UniProt Q61616)
Test: proximity ligation; blocking of the endogenous D1R/GluN1 PLA signal in cultured MSN by the cell-permeable peptide (5 uM, 1 h before and during co-stimulation); only the binder purified

GRKKRRQRRRPPDRKSGRAEPDPKKKATFRAITSTLASSFKRRRSSKDT [TAT-GluN1C1] was tested, and the binding was “binds”.
